In PMC11528518:
Results are given in words; binding and its absence hold for the method and conditions named. In cells and extracts the contact can be indirect. Some binding calls cover weakened binding; strength is not graded here. Sequences can lack the tags named with a protein.

Protein sequences, listed by entry. Tags and fused reporters are not part of them.
UniProt Q9WUK6: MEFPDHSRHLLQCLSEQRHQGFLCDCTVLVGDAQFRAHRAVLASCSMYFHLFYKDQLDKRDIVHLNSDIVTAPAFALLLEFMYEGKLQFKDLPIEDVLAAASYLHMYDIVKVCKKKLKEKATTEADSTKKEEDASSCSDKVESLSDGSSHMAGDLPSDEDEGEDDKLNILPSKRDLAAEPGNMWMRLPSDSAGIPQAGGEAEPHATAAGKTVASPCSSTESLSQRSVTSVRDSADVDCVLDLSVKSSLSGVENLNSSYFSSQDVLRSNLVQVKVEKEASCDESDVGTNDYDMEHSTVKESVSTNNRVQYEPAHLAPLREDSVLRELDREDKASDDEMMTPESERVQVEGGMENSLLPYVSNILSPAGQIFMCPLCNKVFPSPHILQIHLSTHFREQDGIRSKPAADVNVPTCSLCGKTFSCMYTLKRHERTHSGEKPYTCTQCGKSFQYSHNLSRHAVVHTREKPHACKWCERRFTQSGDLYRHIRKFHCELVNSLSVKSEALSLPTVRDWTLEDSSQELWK

Biological target: ZBTB18 (mouse (endogenous in 32D)) (UniProt Q9WUK6)
Assay: co-IP; immunoprecipitation with ZBTB18 antibodies from 32D cells transfected with Flag-p21 plasmid; Western blot for p21

binding: binds
B1: Flag-tagged p21 (protein, UniProt P39689 1-159)
chain: MSNPGDVRPVPHRSKVCRCLFGPVDSEQLRRDCDALMAGCLQEARERWNFDFVTETPLEGNFVWERVRSLGLPKVYLSPGSRSRDDLGGDKRPSTSSALLQGPAPEDHVALSLSCTLVSERPEDSPGGPGTSQGRKRRQTSLTDFYHSKRRLVFCKRKP
